From PubChem BioAssay AID206 (DTP/NCI, 2004)
The list shows only some results of the screen, not a fair sample: it is rich in T/C values a quarter to a half above the control, in often repeated tests (any T/C) and in doses without a T/C. Further doses and runs are listed elsewhere. T/C is the treated group as % of the vehicle group. Schedule codes are those of the source, read here as Q, the interval in days (D) or hours (H), X, the number of doses. Some T/C values carry the count of animals alive at the toxicity check (mostly the fifth day); without a count, all were alive then. Some values lie below zero, which means that the treated tumours became smaller. Some entries were tested several times; their values stand side by side, smallest first. Some entries give survivors of the animals treated and no T/C: the source holds a T/C of zero for them, seemingly a mark for toxic or unscored doses. Counts of survivors are from the toxicity check (mostly the fifth day) where no day follows; animals may have died later.

Test system: nude mice, HT29 intrarenal xenograft, tumor weight T/C
Test: NCI In Vivo Anticancer Drug Screen. Data for tumor model HT29;CX-1 Human Adenocarcinoma (MER+) (intrarenal inoculation) in NU/NU Swiss (nude) mice
Settings: T/C endpoint: mean tumor weight change, higher T/C = larger tumour
Method in brief: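 Readout: treated/vehicle-control ratio of the measured endpoint (tumor size or survival) in transplanted-tumor mice.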

[1] = dose: 600.0 mg/kg/injection, schedule: Q04DX004 (sc), vehicle: saline with Tween-80
[2] = dose: 300.0 mg/kg/injection, schedule: Q04DX004 (sc), vehicle: saline with Tween-80, evaluated on day 15
[3] = dose: 300.0 mg/kg/injection, schedule: Q04DX004 (sc), vehicle: saline with Tween-80

CN(CO)c1nc(N(C)CO)nc(N(C)CO)n1
survivor count (dose: 25.0 mg/kg/injection, schedule: Q01DX008 (ip), vehicle: saline): 0 of 5 | survivor count (dose: 50.0 mg/kg/injection, schedule: Q01DX008 (ip), vehicle: saline): 0 of 5 | survivor count (dose: 100.0 mg/kg/injection, schedule: Q01DX008 (ip), vehicle: saline): 0 of 5 | survivor count (dose: 200.0 mg/kg/injection, schedule: Q01DX008 (ip), vehicle: saline): 0 of 5 | survivor count (dose: 200.0 mg/kg/injection, schedule: Q01DX010 (sc), vehicle: saline): 0 of 3 on day 11 and 0 of 6 on day 11 | survivor count (dose: 200.0 mg/kg/injection, schedule: Q01DX010 (sc), vehicle: suspension in saline): 0 of 6 on day 11 and 3 of 6 on day 11 | survivor count (dose: 400.0 mg/kg/injection, schedule: Q01DX010 (sc), vehicle: suspension in saline): 0 of 6 on day 11

CC(=O)CC(C)=O.CC(=O)CC(C)=O.O=N[O-].O=N[O-].[Co]
survivor count [1]: 1 of 6 on day 15

CC1OC(=O)C(C(C)C)NC(=O)C(C(C)C)OC(=O)C(C(C)C)NC(=O)C(C)OC(=O)C(C(C)C)NC(=O)C(C(C)C)OC(=O)C(C(C)C)NC(=O)C(C)OC(=O)C(C(C)C)NC(=O)C(C(C)C)OC(=O)C(C(C)C)NC1=O (configuration not stated)
T/C (dose: 10.0 mg/kg/injection, schedule: Q01DX010 (sc), vehicle: saline with Tween-80, evaluated on day 11): 126 % of control | T/C (dose: 20.0 mg/kg/injection, schedule: Q01DX010 (sc), vehicle: saline with Tween-80, evaluated on day 11): 129 % of control | survivor count (dose: 80.0 mg/kg/injection, schedule: Q01DX010 (sc), vehicle: saline with Tween-80): 1 of 2 on day 11

CC1(C)COCN1COC1CCCCC1
survivor count (dose: 1600.0 mg/kg/injection, schedule: Q04DX004 (sc), vehicle: saline): 2 of 6 on day 15

CCC(=O)N(C)[C@@H](C)C(=O)O[C@H]1CC(=O)N(C)c2cc(cc(OC)c2Cl)C/C(C)=C/C=C[C@@H](OC)[C@@]2(O)C[C@H](OC(=O)N2)[C@@H](C)[C@@H]2O[C@@]12C
survivor count (dose: 0.5 mg/kg/injection, schedule: Q01DX010 (sc), vehicle: saline + alcohol): 0 of 6 on day 11

Clc1ccc(CN2COc3c(ccc4cccnc34)C2)cc1Cl
T/C (dose: 400.0 mg/kg/injection, schedule: Q01DX010 (sc), vehicle: saline with Tween-80, evaluated on day 11): 134 % of control

CO[C@H]1C[C@](C)(O)Cc2cc3c(c(O)c21)C(=O)c1c(O)cc2c(c1C3=O)O[C@@H]1O[C@@]2(C)[C@H](O)[C@@H](N(C)C)[C@@H]1O
T/C (dose: 100.0 mg/kg/injection, schedule: Q04DX004 (sc), vehicle: other, evaluated on day 15): 132 % of control | T/C (dose: 200.0 mg/kg/injection, schedule: Q04DX004 (sc), vehicle: other, evaluated on day 15): 134 % of control | T/C (dose: 400.0 mg/kg/injection, schedule: Q04DX004 (sc), vehicle: other, evaluated on day 15): 135 % of control [2 of 3 alive on day 15]

CCCCCCCCCCCCCCCC(=O)OCC1OC(n2ccc(N)nc2=O)C(O)C1O (configuration not stated)
T/C (dose: 75.0 mg/kg/injection, schedule: Q04DX004 (sc), vehicle: saline with Tween-80, evaluated on day 15): 11, 17, 22, 45, 148 % of control | T/C (dose: 150.0 mg/kg/injection, schedule: Q04DX004 (sc), vehicle: saline with Tween-80, evaluated on day 15): -7 [5 of 6 alive on day 15] and 69 % of control | survivor count (dose: 150.0 mg/kg/injection, schedule: Q04DX004 (sc), vehicle: saline with Tween-80): 0 of 5 on day 15, 0 of 6 on day 15, 1 of 6 on day 15, 2 of 5 on day 15 | T/C [2]: 33 % of control [5 of 6 alive on day 15] | survivor count [3]: 0 of 6 on day 15 | survivor count [1]: 0 of 6 on day 15 and 2 of 6 on day 15

BrC1c2cccc3cccc(c23)C1Br (configuration not stated)
T/C [2]: 137 % of control | survivor count (dose: 2400.0 mg/kg/injection, schedule: Q04DX004 (sc), vehicle: saline with Tween-80): 2 of 6 on day 15

CCN(CC)CC[n+]1ccc2c(C)c3[nH]c4ccc(O)cc4c3c(C)c2c1
survivor count (dose: 50.0 mg/kg/injection, schedule: Q04DX004 (sc), vehicle: suspension in saline): 2 of 6 on day 15 | survivor count (dose: 100.0 mg/kg/injection, schedule: Q04DX004 (sc), vehicle: suspension in saline): 0 of 6 on day 15

CNC(=O)O/N=C(\CN=[N+]=[N-])C(C)(C)C
T/C (dose: 0.63 mg/kg/injection, schedule: Q04DX004 (sc), vehicle: saline, evaluated on day 15): 129 % of control | T/C (dose: 1.25 mg/kg/injection, schedule: Q04DX004 (sc), vehicle: saline, evaluated on day 15): 144 % of control | survivor count (dose: 2.5 mg/kg/injection, schedule: Q04DX004 (sc), vehicle: saline): 0 of 6 on day 15 | survivor count (dose: 5.0 mg/kg/injection, schedule: Q04DX004 (sc), vehicle: saline): 0 of 6 on day 15

COc1cc2cc[n+](C)c(Cc3ccccc3)c2cc1OC
survivor count (dose: 150.0 mg/kg/injection, schedule: Q04DX004 (sc), vehicle: Klucel (hydroxypropylcellulose) (HPC)): 0 of 6 on day 15

Cc1c(N)nc([C@H](CC(N)=O)NC[C@H](N)C(N)=O)nc1C(=O)N[C@H](C(=O)N[C@H](C)[C@@H](O)[C@H](C)C(=O)N[C@H](C(=O)NCCc1nc(-c2nc(C(=O)NCCC[S+](C)C)cs2)cs1)[C@@H](C)O)C(OC1OC(CO)C(O)C(O)C1OC1OC(CO)C(O)C(OC(N)=O)C1O)c1cnc[nH]1 (some centres not stated)
T/C (dose: 12.5 mg/kg/injection, schedule: Q04DX004 (sc), vehicle: saline, evaluated on day 15): 126 % of control | survivor count (dose: 64.0 mg/kg/injection, schedule: Q04DX004 (sc), vehicle: saline): 0 of 3 on day 15 | survivor count (dose: 128.0 mg/kg/injection, schedule: Q01DX010 (sc), vehicle: saline): 0 of 3 on day 11

c1cc(OCC2CO2)ccc1OCC1CO1 (configuration not stated)
T/C (dose: 800.0 mg/kg/injection, schedule: Q04DX004 (sc), vehicle: saline with Tween-80, evaluated on day 15): 133 % of control | T/C (dose: 1600.0 mg/kg/injection, schedule: Q04DX004 (sc), vehicle: saline with Tween-80, evaluated on day 15): 143 % of control [5 of 6 alive on day 15]

O=C1C(=O)c2ccccc2C(O)=C1CC=C(Cl)Cl
T/C (dose: 50.0 mg/kg/injection, schedule: Q01DX010 (sc), vehicle: water, evaluated on day 11): 139 % of control | T/C (dose: 100.0 mg/kg/injection, schedule: Q01DX010 (sc), vehicle: water, evaluated on day 11): 128 % of control [2 of 2 alive on day 11] | survivor count (dose: 800.0 mg/kg/injection, schedule: Q01DX010 (sc), vehicle: water): 0 of 3 on day 11

COc1cc2c(cc1O)N=C[C@@H]1CCC(O)N1C2=O (mixture of isomers)
survivor count (dose: 20.0 mg/kg/injection, schedule: Q04DX004 (sc), vehicle: suspension in saline): 1 of 6 on day 15 | survivor count (dose: 40.0 mg/kg/injection, schedule: Q04DX004 (sc), vehicle: suspension in saline): 0 of 6 on day 15 | survivor count (dose: 80.0 mg/kg/injection, schedule: Q04DX004 (sc), vehicle: suspension in saline): 0 of 6 on day 15

C[CH2][Ge]([CH2]C)[CH2]C.C[CH2][Ge]([CH2]C)[CH2]C.C[CH2][Ge]([CH2]C)[O][Ge]([CH2]C)[CH2]C
survivor count [3]: 2 of 6 on day 15 | survivor count [1]: 0 of 6 on day 15 | survivor count (dose: 1200.0 mg/kg/injection, schedule: Q04DX004 (sc), vehicle: saline with Tween-80): 0 of 6 on day 15

Cn1cnc([N+](=O)[O-])c1[Se]c1nc(N)nc2nc[nH]c12
survivor count (dose: 100.0 mg/kg/injection, schedule: Q01DX010 (sc), vehicle: water): 0 of 3 on day 11 | survivor count (dose: 200.0 mg/kg/injection, schedule: Q01DX010 (sc), vehicle: water): 0 of 3 on day 11 | survivor count (dose: 400.0 mg/kg/injection, schedule: Q01DX010 (sc), vehicle: water): 0 of 3 on day 11

Nc1cc(Cl)c2[nH]cnc2n1
T/C (dose: 200.0 mg/kg/injection, schedule: Q04DX004 (sc), vehicle: water, evaluated on day 15): 146 % of control | survivor count (dose: 800.0 mg/kg/injection, schedule: Q04DX004 (sc), vehicle: water): 3 of 6 on day 15

Nc1ccc(Cl)cc1N
survivor count (dose: 3600.0 mg/kg/injection, schedule: Q04DX004 (sc), vehicle: saline with Tween-80): 1 of 6 on day 15
